These are yes or no findings as the source states them, for the method shown. A result given as binding can be weak or reduced; the word gives no strength. For part of these data: Tags and fused reporters may be left off the sequences shown. For part of these data: In cells and extracts the contact can be indirect.
Assays:
[1] = biological target: T1, HEV ORF3 protein (O3), LuMPIS construct (Hepatitis E virus genotype 1) (UniProt O90299); assay: pull-down; LuMPIS: N-MBP bait and N-eGFP-Luc prey co-transfected in HEK 293T; bait captured from cleared lysate on amylose beads (20 mM Tris-HCl, 200 mM NaCl, 1 mM EDTA), eluted with 10 mM maltose; luciferase activity of the co-eluted prey; positive if the LIR differs from the control (Dunnett, p < 0.01)
T1 sequence: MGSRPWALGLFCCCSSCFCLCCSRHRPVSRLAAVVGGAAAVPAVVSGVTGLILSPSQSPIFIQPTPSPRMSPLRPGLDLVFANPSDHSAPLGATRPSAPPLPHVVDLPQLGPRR

[2] = biological target: T2, HEV ORF3 protein (O3), two-hybrid fusion (Hepatitis E virus genotype 1) (UniProt O90299); assay: two-hybrid; CN: bait with C-terminal Gal4 DBD (pGBKCg), prey with N-terminal Gal4 AD (pGADT7g); array-based mating, all against all; growth on SD-leu-trp-his with 3-AT at the bait's minimum inhibitory concentration (Table 2: 0, 3 or 10 mM; Table 3: 1 mM); 7 days, 30 °C
T2 sequence: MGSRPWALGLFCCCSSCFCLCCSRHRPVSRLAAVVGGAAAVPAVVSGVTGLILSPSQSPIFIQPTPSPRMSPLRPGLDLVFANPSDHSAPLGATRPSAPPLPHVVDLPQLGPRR

[3] = biological target: T2, HEV ORF3 protein (O3), two-hybrid fusion (Hepatitis E virus genotype 1); assay: two-hybrid; CC: bait with C-terminal Gal4 DBD (pGBKCg), prey with C-terminal Gal4 AD (pGADCg); array-based mating, all against all; growth on SD-leu-trp-his with 3-AT at the bait's minimum inhibitory concentration (Table 2: 0, 3 or 10 mM; Table 3: 1 mM); 7 days, 30 °C
[4] = biological target: T2, HEV ORF3 protein (O3), two-hybrid fusion (Hepatitis E virus genotype 1); assay: two-hybrid; NC: bait with N-terminal Gal4 DBD (pGBKT7g), prey with C-terminal Gal4 AD (pGADCg); array-based mating, all against all; growth on SD-leu-trp-his with 3-AT at the bait's minimum inhibitory concentration (Table 2: 0, 3 or 10 mM; Table 3: 1 mM); 7 days, 30 °C
[5] = biological target: T2, HEV ORF3 protein (O3), two-hybrid fusion (Hepatitis E virus genotype 1); assay: two-hybrid; NN: bait with N-terminal Gal4 DBD (pGBKT7g), prey with N-terminal Gal4 AD (pGADT7g); array-based mating, all against all; growth on SD-leu-trp-his with 3-AT at the bait's minimum inhibitory concentration (Table 2: 0, 3 or 10 mM; Table 3: 1 mM); 7 days, 30 °C
[6] = biological target: Methyltransferase domain of HEV ORF1 (Met), LuMPIS construct (Hepatitis E virus genotype 1); assay: pull-down; LuMPIS: N-MBP bait and N-eGFP-Luc prey co-transfected in HEK 293T; bait captured from cleared lysate on amylose beads (20 mM Tris-HCl, 200 mM NaCl, 1 mM EDTA), eluted with 10 mM maltose; luciferase activity of the co-eluted prey; positive if the LIR differs from the control (Dunnett, p < 0.01)
[7] = biological target: RNA dependent RNA polymerase domain of HEV ORF1 (Rdrp), LuMPIS construct (Hepatitis E virus genotype 1); assay: as above
[8] = biological target: Papain-like protease domain of HEV ORF1 (Plp), LuMPIS construct (Hepatitis E virus genotype 1); assay: as above
[9] = biological target: Helicase domain of HEV ORF1 (Hel), LuMPIS construct (Hepatitis E virus genotype 1); assay: as above
[10] = biological target: X domain of HEV ORF1 (X), LuMPIS construct (Hepatitis E virus genotype 1); assay: as above
[11] = biological target: X domain of HEV ORF1 (X), two-hybrid fusion (Hepatitis E virus genotype 1); assay: two-hybrid; CC: bait with C-terminal Gal4 DBD (pGBKCg), prey with C-terminal Gal4 AD (pGADCg); array-based mating, all against all; growth on SD-leu-trp-his with 3-AT at the bait's minimum inhibitory concentration (Table 2: 0, 3 or 10 mM; Table 3: 1 mM); 7 days, 30 °C
[12] = biological target: Methyltransferase domain of HEV ORF1 (Met), two-hybrid fusion (Hepatitis E virus genotype 1); assay: as above
[13] = biological target: X domain of HEV ORF1 (X), two-hybrid fusion (Hepatitis E virus genotype 1); assay: two-hybrid; CN: bait with C-terminal Gal4 DBD (pGBKCg), prey with N-terminal Gal4 AD (pGADT7g); array-based mating, all against all; growth on SD-leu-trp-his with 3-AT at the bait's minimum inhibitory concentration (Table 2: 0, 3 or 10 mM; Table 3: 1 mM); 7 days, 30 °C
[14] = biological target: Methyltransferase domain of HEV ORF1 (Met), two-hybrid fusion (Hepatitis E virus genotype 1); assay: as above
[15] = biological target: Papain-like protease domain of HEV ORF1 (Plp), two-hybrid fusion (Hepatitis E virus genotype 1); assay: two-hybrid; NC: bait with N-terminal Gal4 DBD (pGBKT7g), prey with C-terminal Gal4 AD (pGADCg); array-based mating, all against all; growth on SD-leu-trp-his with 3-AT at the bait's minimum inhibitory concentration (Table 2: 0, 3 or 10 mM; Table 3: 1 mM); 7 days, 30 °C
[16] = biological target: RNA dependent RNA polymerase domain of HEV ORF1 (Rdrp), two-hybrid fusion (Hepatitis E virus genotype 1); assay: as above
[17] = biological target: X domain of HEV ORF1 (X), two-hybrid fusion (Hepatitis E virus genotype 1); assay: as above
[18] = biological target: Methyltransferase domain of HEV ORF1 (Met), two-hybrid fusion (Hepatitis E virus genotype 1); assay: as above
[19] = biological target: Papain-like protease domain of HEV ORF1 (Plp), two-hybrid fusion (Hepatitis E virus genotype 1); assay: two-hybrid; NN: bait with N-terminal Gal4 DBD (pGBKT7g), prey with N-terminal Gal4 AD (pGADT7g); array-based mating, all against all; growth on SD-leu-trp-his with 3-AT at the bait's minimum inhibitory concentration (Table 2: 0, 3 or 10 mM; Table 3: 1 mM); 7 days, 30 °C
[20] = biological target: RNA dependent RNA polymerase domain of HEV ORF1 (Rdrp), two-hybrid fusion (Hepatitis E virus genotype 1); assay: as above
[21] = biological target: Helicase domain of HEV ORF1 (Hel), two-hybrid fusion (Hepatitis E virus genotype 1); assay: as above
[22] = biological target: X domain of HEV ORF1 (X), two-hybrid fusion (Hepatitis E virus genotype 1); assay: as above
[23] = biological target: Methyltransferase domain of HEV ORF1 (Met), two-hybrid fusion (Hepatitis E virus genotype 1); assay: as above

Measured: binding

Papain-like protease domain of HEV ORF1 (Plp), LuMPIS construct (Hepatitis E virus genotype 1) (domain or fragment)
binds: [1]

Papain-like protease domain of HEV ORF1 (Plp), two-hybrid fusion (Hepatitis E virus genotype 1) (domain or fragment)
binds: [2]

X domain of HEV ORF1 (X), two-hybrid fusion (Hepatitis E virus genotype 1) (domain or fragment)
binds: [3] | [2] | [4] | [5]

B1: HEV ORF3 protein (O3), LuMPIS construct (protein, UniProt O90299 1-114)
chain: MGSRPWALGLFCCCSSCFCLCCSRHRPVSRLAAVVGGAAAVPAVVSGVTGLILSPSQSPIFIQPTPSPRMSPLRPGLDLVFANPSDHSAPLGATRPSAPPLPHVVDLPQLGPRR
binds: [6] | [7] | [8] | [9] | [10]

B2: HEV ORF3 protein (O3), two-hybrid fusion (protein, UniProt O90299 1-114)
chain: MGSRPWALGLFCCCSSCFCLCCSRHRPVSRLAAVVGGAAAVPAVVSGVTGLILSPSQSPIFIQPTPSPRMSPLRPGLDLVFANPSDHSAPLGATRPSAPPLPHVVDLPQLGPRR
not listed: [1] | [2] | [3] | [4] | [5] | [6] | [7] | [8] | [9] | [10]
binds: all other assays above

— PMC4604457
